At least one structure is not confirmed: it was looked up by name or label, or the drawing left a doubt. Some results were stated once for a whole list of compounds, not compound by compound.
Tests used:
[1] = tested on: unilateral pulmonary fibrosis model in SD rats; test: Therapeutic efficacy in unilateral pulmonary fibrosis model in SD rats (bleomycin, dosing from D8); assay type: in vivo; details: for lesion area with score below 3 (Ashcraft): BIBF1120 100, compound A 5, 15, 30, GDC0449 50 mg/kg/d
Procedure: On the modeling day, rats were anesthetized and exposed to trachea. Bleomycin was injected into left trachea of each group (dosage: 3 mg/kg, volume: 1.0 ml/kg). Oral administration was performed on Day 8 after modeling, once a day. On Day 22, according to the KCI animal euthanasia SOP, animals in each group were given an overdose of sodium barbiturate and sacrificed under intraperitoneal anesthesia, the left lung was taken, the weight and volume of the left lung were measured, then fixed by formalin, the bronchioles were stained with HE, Masson trichrome. The bronchioles, final bronchiole and small pulmonary artery injury and inflammation invasion were evaluated by semi-quantitative score, and pulmonary fibrosis was evaluated by Ashcraft semi-quantitative score. Immunohistochemical staining of α-SMA, Type I collagen (Collagen-I) were performed at the same time, a full scan was performed by Hamamatsu NanoZoomer Digital Pathology (S210), the α-SMA positive area was semiquantitatively calculated from the unit area of the whole sheelt in pulmonary fibrosis foci, and the positive staining area of type-I collagent per unit of area was calculated.

[2] = tested on: unilateral pulmonary fibrosis model in SD rats; test: Prophylactic therapeutic efficacy in unilateral pulmonary fibrosis model in SD rats (bleomycin); assay type: in vivo; details: BIBF1120 60 mg/kg/d; for share of fibrosis lesions above 4 points (ashcraft) / share of lesion score below 3 (Ashcraft): compound A 5, 10, 20 mg/kg/d; for share of lesion score below 3 (Ashcraft): p<0.001 vs. model
Procedure: 40 male SD rats were randomized into Model group (Group 1, n=8), positive drug group BIBF1120 60 mg/kg/d group (Group 2, n=8), Compound A 5 mg/kg/d group (Group 3, n=8), compound A 10 mg/kg/d group (Group 4, n=8) and Compound A 20 mg/kg/d (Group 5, n=8). On the modeling day, rats were anesthetized and exposed to trachea. Bleomycin was injected into trachea of each group (dosage: 3 mg/kg, volume: 1.0 ml/kg). Oral administration was performed 2 hours after modeling, once a day. On Day 15, all the animals were killed, the left lung was taken, the weight and volume of the left lung were measured, then fixed by formalin, the bronchioles were stained with HE, Masson trichrome. The bronchioles, final bronchiole and small pulmonary artery injury and inflammation invasion were evaluated by semi-quantitative score, and pulmonary fibrosis was evaluated by Ashcraft semi-quantitative score.

[3] = tested on: lung fibrosis model in mice induced by bleomycin; test: Therapeutic efficacy in lung fibrosis model in mice induced by bleomycin; assay type: in vivo, C57BL/6 mice; details: BIBF1120 50 mpk
Procedure: Experimental Methods: 60 male C57BL/6 mice were randomize into 6 groups: Blank control group (Group 1, n=10), model group (Group 2, BLM, n=10), Compound A 10 mpk group (Group 3, n=10), compound A 20 mpk group (Group 4, n=10), Compound A 20 mpk +BIBF1120 50 mpk (Group 5, n=10), and BIBF1120 50 mpk positive reference group (Group 6, n=10). One week after the mice were acclimated to the environment, 10 mice in the blank control group were given 50 μl of normal saline in the trachea, and other 50 mice were given 50 μl BLM (0.66 mg/kg, 2 ml/kg) in the trachea. After BLM infusion, 50 mice in BLM infusion group were randomly assigned to start treatment on the 5th day, once a day, with a treatment cycle of 20 days. The whole process was 25 days. After the experiment, the lung tissues were fixed in 10% neutral formalin, dehydrated by alcohol gradient, embedded with paraffin, stained by hematoxylin-eosin (H&E) and Masson trichrome staining. And the inflammatory area and degree of fibrosis of the lung tissues in mice were evaluated by APERIO ScanScope. Immunohistochemical staining of lung tissue was performed to quantify α-SMA positive fibroblasts in lung tissue and to calculate the percentage (%) of α-SMA staining in the entire lung stroma.

[4] = tested on: liver fibrosis model in C57BL/6 mice induced by CCl4; test: Prophylactic therapeutic efficacy in liver fibrosis model in C57BL/6 mice induced by CCl4; assay type: in vivo
Procedure: 56 male C57BL/6 mice were randomize divided into false Model group (Group 1, n=6), Model group (Group 2, n=10), positive drug Obercholic acid group (Group 3, n=10, 30 mg/kg/d), compound A low-dose group (Group 4, n=10, 5 mg/kg/d), Compound A medium-dose (Group 5, n=10, 10 mg/kg/d), and Compound A high-dose group (Group 6, n=10, 20 mg/kg/d). Oral molding agent for molding three times a week, for 4 weeks, weighing before each dose. Compound A was administered orally once a day for a total of 28 days from the day of modeling. The model group was given an equal volume of drug vehicle and weighed before each dose. All animals fasted for 6 hours from 24 hours after the end of the last dose. Serum was collected and the concentrations of AST, ALT and TBIL in serum were detected. All animals were euthanized, the livers were collected, weighed, and photos of the gross anatomy of the livers were taken. The liver tissue was fixed in 10% formalin solution for histopathological examination, H&E staining and Sirius red staining.

[5] = Obercholic acid 30 mg/kg/d, no statistical significance
[6] = obercholic acid 30 mg/kg/d, compound A 5, 10, 20 mg/kg/d

In the case of `COC(=O)c1ccc2c(c1)NC(=O)/C2=C(\Nc1ccc(N(C)C(=O)CN2CCN(C)CC2)cc1)c1ccccc1` [BIBF1120, Nintedanib ethylsulfonate, reference compound], the “damage and inflammatory response of terminal bronchioles within fibrosis lesions and pulmonary small artery compared with model group” value ([1]; 14 consecutive days, BIBF1120 100, Compound A 5, 15, 30, GDC0449 50 mg/kg/d, p<0.001) is reported as “significantly reduced”, the “degree of pulmonary fibrosis (Ashcraft score) compared with model group” value ([1]; BIBF1120 100, Compound A 5, 15, 30, GDC0449 50 mg/kg/d, p<0.01) is reported as “significantly better” and the “lesion area with score below 3 (Ashcraft)” value (“lesion area” for short) ([1]; p<0.001) is reported as “above 80%”. The “amount of Type I collagen deposition in the fibrotic lesions compared with model group” value ([1]; BIBF1120 100 mpk, Compound A 5 mpk, GDC0449 50 mpk) was “no significant difference”, the “positive rate of α-SMA in fibrosis lesions per unit area compared with model group” value ([1]; BIBF1120 100 mpk, GDC0449 50 mpk) was “no significant difference” and the “weight of left lung compared with model group” value [2] was “lower than that in model group”. For the same compound, the “degree of pulmonary fibrosis (Ashcraft score) compared with model group” value ([2]; Compound A 5, 10, 20 mg/kg/d, p<0.01) was “significantly alleviated”, the “share of fibrosis lesions above 4 points (ashcraft)” value [2] was “less than 40%” and the “share of lesion score below 3 (Ashcraft)” value [2] was “more than 60%”. The “immunohistochemical staining of α-SMA compared with model group” value [3] was “no significant efficacy”, the “inflammatory area compared with model group” value ([3]; p<0.001) was “significantly decreased” and the “modified pathological Ashcroft score of pulmonary fibrosis injury compared with model group” value ([3]; p<0.01) was “significantly decreased”.
In the case of `CS(=O)(=O)c1ccc(C(=O)Nc2ccc(Cl)c(-c3ccccn3)c2)c(Cl)c1` [GDC0449, vismodegib, reference compound], the “lesion area” value ([1]; p<0.001) is reported as “above 80%”.
`CC[C@H]1[C@@H](O)[C@@H]2[C@H](CC[C@]3(C)[C@@H]([C@H](C)CCC(=O)O)CC[C@@H]23)[C@@]2(C)CC[C@@H](O)C[C@@H]12` [Obercholic acid, reference compound] was tested, and the “efficacy response trend of serum enzyme, liver histology and other parameters” value ([4]; Obercholic acid 30 mg/kg daily for four consecutive weeks) was “no statistic difference”, the “level of ALT in peripheral blood compared with model group” value [4, 5] was “decreased” and the “level of AST in peripheral blood compared with model group” value [4, 5] was “decreased”. For the same compound, the “level of TBIL in peripheral blood compared with model group” value [4, 5] was “decreased”, the liver weight ([4]; after 4 weeks, compared with false model group, Obercholic acid 30 mg/kg/d, Compound A 5, 10, 20 mg/kg/d) was “increased significantly” and the “changes of liver surface compared with model group” value ([4]; gross liver after 4 weeks, Obercholic acid 30 mg/kg/d, compound A 5, 10, 20 mg/kg/d) was “significantly less”. For the same compound, the “hepatocyte necrosis (liver tissue injury score)” value ([4]; obercholic acid 30 mg/kg/d) was “significantly decreased”, the “inflammatory cell infiltration (liver tissue injury score)” value ([4]; obercholic acid 30 mg/kg/d) was “significantly decreased” and the “hepatic fibrosis area (Sirius red staining) compared with model group” value [4, 6] was “significantly reduced”. The “total score of liver cell injury compared with model group” value [4, 6] was “significantly different”.
`CC(C)c1cnc(-c2cc(NC(=O)c3ccc(N4C[C@@H](C)N(C)[C@@H](C)C4)cc3C(F)(F)F)ccc2Cl)[nH]1` [Comp A, N-(3-(5-isopropyl-1H-imidazol-2-yl)-4-chlorophenyl)-2-trifluoromethyl-4-((3S,5R)-3,4,5-trimethylpiperazin-1-yl)benzamide] was tested, and the “lesion area” value ([1]; p<0.001) was “above 80%”, the “share of fibrosis lesions above 4 points (ashcraft)” value [2] was “less than 40%” and the “share of lesion score below 3 (Ashcraft)” value [2] was “more than 60%”.

Reference: US20190255042A1, “APPLICATION OF HEDGEHOG PATHWAY INHIBITOR IN TREATING FIBROSIS DISEASES” (IMPACT THERAPEUTICS, INC, priority 2016, published 2019)
